In PMC5356633, “Arctigenin functions as a selective agonist of estrogen receptor β to restrict mTORC1 activation and consequent Th17 differentiation” (Oncotarget, 2016):
Results are given in words; binding and its absence hold for the method and conditions named. In cells and extracts the contact can be indirect. Some results given as binding are weak or reduced against the parent protein; the word gives no strength.

Protein sequences, listed by entry. Tags and fused reporters are not part of them.
UniProt Q8K4Q0: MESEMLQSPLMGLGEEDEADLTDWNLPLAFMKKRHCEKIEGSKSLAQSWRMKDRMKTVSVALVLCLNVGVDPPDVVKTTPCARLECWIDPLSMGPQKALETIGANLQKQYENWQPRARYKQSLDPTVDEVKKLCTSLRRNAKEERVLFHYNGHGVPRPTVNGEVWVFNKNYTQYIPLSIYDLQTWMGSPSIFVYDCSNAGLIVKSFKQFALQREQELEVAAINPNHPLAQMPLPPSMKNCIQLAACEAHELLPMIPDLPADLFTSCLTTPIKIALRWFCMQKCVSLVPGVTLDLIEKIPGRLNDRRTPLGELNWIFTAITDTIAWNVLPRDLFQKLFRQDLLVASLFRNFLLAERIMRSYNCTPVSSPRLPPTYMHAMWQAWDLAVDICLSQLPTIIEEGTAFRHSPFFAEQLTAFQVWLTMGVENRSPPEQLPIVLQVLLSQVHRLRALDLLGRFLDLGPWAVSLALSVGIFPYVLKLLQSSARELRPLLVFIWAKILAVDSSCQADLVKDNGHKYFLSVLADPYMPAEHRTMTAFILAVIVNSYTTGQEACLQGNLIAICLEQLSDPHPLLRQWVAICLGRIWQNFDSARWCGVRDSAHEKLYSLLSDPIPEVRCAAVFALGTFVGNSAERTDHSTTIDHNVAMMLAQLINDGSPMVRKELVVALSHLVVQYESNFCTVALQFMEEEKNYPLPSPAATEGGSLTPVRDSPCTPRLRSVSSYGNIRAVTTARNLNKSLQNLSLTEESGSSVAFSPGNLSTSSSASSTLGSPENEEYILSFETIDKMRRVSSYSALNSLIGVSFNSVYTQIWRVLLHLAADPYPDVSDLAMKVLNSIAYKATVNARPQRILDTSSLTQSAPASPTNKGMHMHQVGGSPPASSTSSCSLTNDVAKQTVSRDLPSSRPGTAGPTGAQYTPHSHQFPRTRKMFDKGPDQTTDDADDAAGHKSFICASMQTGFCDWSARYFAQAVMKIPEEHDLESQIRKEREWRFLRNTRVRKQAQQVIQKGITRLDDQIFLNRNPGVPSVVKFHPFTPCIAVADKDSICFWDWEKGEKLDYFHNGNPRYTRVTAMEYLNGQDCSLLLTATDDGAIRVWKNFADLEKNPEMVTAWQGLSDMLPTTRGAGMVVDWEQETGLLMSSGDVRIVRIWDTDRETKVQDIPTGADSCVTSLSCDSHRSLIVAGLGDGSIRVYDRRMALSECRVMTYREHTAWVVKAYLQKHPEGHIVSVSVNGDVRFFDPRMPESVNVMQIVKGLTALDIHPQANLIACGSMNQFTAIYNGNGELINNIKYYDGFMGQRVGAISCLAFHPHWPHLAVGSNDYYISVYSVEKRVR
UniProt O08537: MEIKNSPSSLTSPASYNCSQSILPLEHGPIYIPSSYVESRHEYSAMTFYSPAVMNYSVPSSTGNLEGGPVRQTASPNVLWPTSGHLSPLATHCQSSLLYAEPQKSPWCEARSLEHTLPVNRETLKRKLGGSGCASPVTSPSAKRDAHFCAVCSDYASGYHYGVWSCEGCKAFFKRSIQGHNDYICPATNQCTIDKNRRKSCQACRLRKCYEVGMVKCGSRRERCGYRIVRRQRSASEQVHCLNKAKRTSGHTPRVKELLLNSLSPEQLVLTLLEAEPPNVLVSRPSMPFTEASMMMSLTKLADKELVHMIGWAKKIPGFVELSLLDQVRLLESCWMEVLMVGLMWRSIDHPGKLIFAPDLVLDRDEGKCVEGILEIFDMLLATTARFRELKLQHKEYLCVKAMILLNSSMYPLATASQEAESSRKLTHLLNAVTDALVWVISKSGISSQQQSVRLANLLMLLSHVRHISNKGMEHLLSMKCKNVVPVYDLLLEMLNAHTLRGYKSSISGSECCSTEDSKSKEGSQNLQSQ

Biological target: regulatory-associated protein of mTOR (raptor) (mouse (endogenous in EL4)) (UniProt Q8K4Q0)
Assay: co-IP; serum-starved EL4 cells treated with or without arctigenin (10 μM), E2 (1 μM) or PHTPP (0.1 μM), or control siRNA or ERβ siRNA, for 24 h; NP40 lysis buffer; lysate incubated overnight at 4 °C with 2 μg anti-raptor, protein A/G agarose beads; immunoblot

## estrogen receptor β (from UniProt O08537 1-530)
  binding: binds
